{"sequences": {"note": "Chains of the proteins cited; added tags and fusions are not shown. Lines headed by an entry give the natural chain unless they say otherwise; changes in a name come on top.", "UniProt P18054": "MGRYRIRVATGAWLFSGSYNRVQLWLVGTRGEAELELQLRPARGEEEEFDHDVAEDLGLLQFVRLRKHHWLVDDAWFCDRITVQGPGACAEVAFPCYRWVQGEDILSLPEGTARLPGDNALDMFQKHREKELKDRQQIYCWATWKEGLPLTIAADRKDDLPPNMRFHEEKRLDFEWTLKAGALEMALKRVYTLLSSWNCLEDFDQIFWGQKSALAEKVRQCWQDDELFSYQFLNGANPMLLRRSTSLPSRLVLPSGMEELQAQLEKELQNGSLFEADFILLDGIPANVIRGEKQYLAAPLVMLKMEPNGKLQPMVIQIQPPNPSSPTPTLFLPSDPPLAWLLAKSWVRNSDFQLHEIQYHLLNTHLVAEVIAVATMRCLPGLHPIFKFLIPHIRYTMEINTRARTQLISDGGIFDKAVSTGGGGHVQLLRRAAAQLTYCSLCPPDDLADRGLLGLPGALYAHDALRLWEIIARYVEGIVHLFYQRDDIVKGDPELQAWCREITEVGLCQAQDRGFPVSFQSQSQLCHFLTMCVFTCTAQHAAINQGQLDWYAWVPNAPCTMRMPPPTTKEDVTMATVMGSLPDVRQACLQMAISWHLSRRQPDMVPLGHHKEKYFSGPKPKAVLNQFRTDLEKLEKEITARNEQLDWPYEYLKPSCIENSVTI"}, "source": "PubChem BioAssay AID1671190", "about": "(National Center for Advancing Translational Sciences (NCATS), 2021)", "note": "The whole screen tested about 580,000 compounds, of which about 6,100 (1.1%) were called active. The shares of active, inactive and inconclusive entries below differ from those in the screen. Calls follow the shape of the dose curve; as a rule, active = well fitted inhibition curve with a large enough effect; inconclusive = small, poorly fitted or top-dose-only effect, or another doubt; inactive = no such curve, though single readings can be large or run the other way. Potencies beside an inconclusive call are fits to weak or partial responses and may not hold up. % is scaled to controls: 0 for no effect and ±100 for the full control effect; potency is read from the fitted curve at half-maximal effect."}
{"biological_target": "Polyunsaturated fatty acid lipoxygenase ALOX12 (Homo sapiens) (UniProt P18054)", "experiment": "Primary qHTS assay for inhibitors of human arachidonate 12S-lipoxygenase (ALOX12): Round 2", "conditions": "purified 12hLO, xylenol orange hydroperoxide absorbance; activity change, negative = inhibition: at 108 µM (top of the series) unless noted", "summary_of_the_method": "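Hydroperoxide product was detected by ferrous iron/xylenol orange as the 573 to 405 nm absorbance ratio. Arachidonic acid at 40 uM (final) was turned over for 30 min at room temperature by 150 nM human 12hLO, pH 7.0 Hepes buffer, after 15 min compound preincubation.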"}
{"smiles": "Cc1ccc(NC(=O)Cn2c(N3CCCCC3)nc(C)c(C)c2=O)c(C)c1", "Potency": "inactive"}
{"smiles": "COc1cc(C(=O)NCc2coc(-c3cccs3)n2)ccc1OC(F)F", "Potency": "inconclusive: 50.1 µM [inhibitor, partial curve, poor fit]"}
{"smiles": "CN(C)S(=O)(=O)c1cccc(C(=O)OCC(=O)N2c3ccccc3NC(=O)C2(C)C)c1", "Potency": "inactive"}
{"smiles": "Cc1cccc(NC(=O)CSCC(=O)Nc2ccc(S(=O)(=O)N3CCOCC3)cc2)c1", "activity change, negative = inhibition": "inconclusive: -32.9% [inhibitor]"}
{"smiles": "COc1ccc(OC)c(C2CCCN2C(=O)c2ccc(-n3cccn3)cc2)c1", "note": "(configuration not stated)", "Potency": "inactive"}
{"smiles": "O=C(NCc1cc([N+](=O)[O-])ccc1O)c1cc(-c2ccncc2)nc2ccccc12", "Potency": "inactive"}
{"smiles": "Cc1ccc(C2C3C(=O)N(c4ccc(C)cc4)C(=O)C3N3CCCN23)cc1", "note": "(configuration not stated)", "Potency": "inconclusive: 79.4 µM [inhibitor, partial curve, poor fit]"}
{"smiles": "C=CCNC(=O)COC(=O)c1cc(-c2ccc(C)o2)nc2ccccc12", "Potency": "inconclusive: 15.8 µM [inhibitor, partial curve, poor fit]"}
{"smiles": "Cc1noc(C)c1-c1cc2cc(C(C)C)oc2c(N2CCN(C)C(=O)C2)n1", "Potency": "inconclusive: 50.1 µM [inhibitor, full curve, poor fit]"}
{"smiles": "Cc1ccc(Nc2nnc(SCC(=O)NC(Cc3c[nH]c4ccccc34)C(=O)O)s2)cc1", "note": "(configuration not stated)", "Potency": "inconclusive: 50.1 µM [inhibitor, partial curve, poor fit]"}
{"smiles": "Cc1cc(C)cc(NC(=O)c2cnn3c2NC(C(=O)O)=CC3/C=C/c2ccccc2)c1", "note": "(configuration not stated)", "Potency": "inconclusive: 31.6 µM [inhibitor, partial curve, poor fit]"}
{"smiles": "Cc1ccccc1-c1cc(Nc2ccccc2)ncn1", "Potency": "inconclusive: 6.31 µM [inhibitor, full curve, poor fit]"}
{"smiles": "Cc1[nH]n(-c2ccccc2)c(=O)c1/C=N/N1C(=O)c2ccc3c4c(ccc(c24)C1=O)CC3", "Potency": "inactive"}
{"smiles": "CCOC(=O)Cc1csc(NC(=O)COc2ccc(C)c(C)c2)n1", "Potency": "inactive"}
{"smiles": "COc1ccc2c(c1)CC[C@@H]1[C@@H]2CC[C@]2(C)[C@@H](NCCCCCCN3C(=O)C=CC3=O)CC[C@@H]12", "Potency": "inactive"}
{"smiles": "O=C1c2ccccc2NC(c2ccc(-c3cccc(F)c3)o2)N1O", "note": "(configuration not stated)", "Potency": "active: 35.5 µM"}
{"smiles": "Cc1cccc(Nc2cnn(C34CC5CC(CC(CC(=O)O)(C5)C3)C4)c(=O)c2Cl)c1", "Potency": "inactive"}
{"smiles": "COc1ccc(C(=O)N2CCC3(CC2)OC(=O)N(Cc2csc(C)n2)C3(C)c2ccccc2)cn1", "note": "(configuration not stated)", "Potency": "inactive"}
{"smiles": "CN(C(=O)Cn1cc(C#N)c2ccccc21)c1ccccc1", "Potency": "inconclusive: 79.4 µM [inhibitor, partial curve, poor fit]"}
{"smiles": "COc1cc(/C=C2\\SC(=S)N(NC(=O)c3ccc(O)c(OC)c3)C2=O)ccc1O", "Potency": "inconclusive: 50.1 µM [inhibitor, partial curve, poor fit]"}
{"smiles": "O=C(CSc1nc(C2CC2)nc2c1cnn2-c1ccccc1)Nc1c[nH]c(=O)[nH]c1=O", "Potency": "inconclusive: 31.6 µM [inhibitor, partial curve, poor fit]"}
{"smiles": "CC(C)CN(C(=O)COC(=O)c1nc(Cl)ccc1Cl)c1c(N)n(Cc2ccccc2)c(=O)[nH]c1=O", "Potency": "inconclusive: 100 µM [inhibitor, partial curve, poor fit]"}
{"smiles": "CC(C)CNC(=O)c1ccc2c(c1)CCCN2C(=O)c1cccc(Cl)c1", "Potency": "inconclusive: 7.08 µM [inhibitor, partial curve, poor fit]"}
{"smiles": "CCn1c(COc2cc(C)ccc2Cl)n[nH]c1=S", "Potency": "inconclusive: 11.2 µM [inhibitor, partial curve, poor fit]"}
{"smiles": "CCCn1nc(NC(=O)c2ccco2)c2cc3cc(C)ccc3nc21", "Potency": "inconclusive: 31.6 µM [inhibitor, partial curve, poor fit]"}
{"smiles": "COc1ccccc1Nc1nc(N)nc(CSC(=S)N2CCCCC2)n1", "Potency": "inactive"}
{"smiles": "CCCN(CC(=O)Nc1ccc(Cl)cc1Cl)C(=O)/C=C/c1cc(OC)ccc1OC", "Potency": "inactive"}
{"smiles": "CNC(=O)NC(=O)CSc1ccc(Br)cc1", "Potency": "inconclusive: 112 µM [inhibitor, single point]"}
{"smiles": "CCn1ccc(C(=O)N2C[C@@H](COCC3CC3)[C@H](c3nc(C)no3)C2)n1", "Potency": "inactive"}
{"smiles": "CN1CCC(OC2CCN(C(=O)CCCc3ccccc3)CC2)CC1", "Potency": "inactive"}
{"smiles": "COc1ccccc1-c1cc(NCc2cccnc2)ncn1", "Potency": "inconclusive: 44.7 µM [inhibitor, partial curve, poor fit]"}
{"smiles": "O=C(c1ccc(-c2ccc(Cl)cc2Cl)o1)N1CCOCC1", "Potency": "inactive"}
{"smiles": "CC(Oc1ccccc1)C(=O)NCc1nnc2ccc(-c3ccc(F)cc3)nn12", "note": "(configuration not stated)", "Potency": "inactive"}
{"smiles": "O=C(CC1C(=O)N(c2ccccc2)C(=O)N1Cc1ccc2c(c1)OCO2)Nc1ccccc1", "note": "(configuration not stated)", "Potency": "inconclusive: 70.8 µM [inhibitor, partial curve, poor fit]"}
{"smiles": "c1ccc(C2[C@H]3CN(CC4CCCCC4)[C@H](c4ccccc4)C34CC2(c2cccnc2)C4)cc1", "note": "(some centres not stated)", "Potency": "inconclusive: 126 µM [inhibitor, single point]"}
{"smiles": "Oc1ccc(Cl)cc1CNCC1CCCCC1", "Potency": "inconclusive: 50.1 µM [inhibitor, partial curve, poor fit]"}
{"smiles": "COc1ccc(NC(=O)Cn2cc(C(=O)c3ccco3)c3ccccc32)cc1", "Potency": "inactive"}
{"smiles": "O=c1ccc(N=Nc2ccccc2)ccc1O", "Potency": "active: 44.7 µM"}
{"smiles": "COc1ccccc1Cc1c(C(C)(C)C)nc2c3ccccc3ccn12", "Potency": "active: 28.2 µM"}
{"smiles": "Cc1c(N(C)C)nc2ccccc2c1N", "Potency": "inconclusive: 0.282 µM [inhibitor, full curve, poor fit]"}
{"smiles": "O=C(c1n[nH]c2ccccc12)N1CCC(Cc2noc(C3CCOCC3)n2)C1", "note": "(configuration not stated)", "Potency": "inconclusive: 7.94 µM [inhibitor, full curve]"}
{"smiles": "Cc1cc(C)c(S(=O)(=O)N2CCN(c3ccc(N4CCCCCC4)nn3)CC2)c(C)c1", "Potency": "inconclusive: 28.2 µM [inhibitor, partial curve]"}
{"smiles": "CC(C)=CCNc1ncnc2c1c(C#N)cn2C1OC(CO)C(O)C1O", "note": "(configuration not stated)", "Potency": "inactive"}
{"smiles": "Cc1cc(C(=O)NC2CCNCC2)c2c(C3CCCN3)noc2n1", "note": "(configuration not stated)", "Potency": "inconclusive: 12.6 µM [inhibitor, full curve, poor fit]"}
{"smiles": "COc1ccccc1Nc1ncc2c(n1)CN(C(=O)COc1ccccc1)CCN2", "Potency": "inconclusive: 50.1 µM [inhibitor, partial curve]"}
{"smiles": "COc1cc(/C=C/C(=O)c2sc(C(C)(C)C)nc2C)cc(OC)c1O", "Potency": "inconclusive: 0.631 µM [inhibitor, full curve, poor fit]"}
{"smiles": "Cc1oc(-c2cccs2)nc1CS(=O)CC(=O)NCCCOC(C)C", "note": "(configuration not stated)", "Potency": "inconclusive: 79.4 µM [inhibitor, single point]"}
{"smiles": "OC(COCc1ccc(Cl)cc1)CN1CCN(c2ccccn2)CC1", "note": "(configuration not stated)", "Potency": "inconclusive: 50.1 µM [inhibitor, partial curve, poor fit]"}
{"smiles": "O=C(/C=C/c1cccc(F)c1)c1cccc(N2CCOCC2)c1", "Potency": "inconclusive: 44.7 µM [inhibitor, partial curve, poor fit]"}
{"smiles": "Cc1cc(OCc2cccc(Cl)c2)c(C)cc1CN1CCOCC1", "Potency": "inactive"}
{"smiles": "COc1ccc(C)cc1N1CC(C(=O)Nc2ccc(S(=O)(=O)Nc3ncccn3)cc2)CC1=O", "note": "(configuration not stated)", "Potency": "inconclusive: 44.7 µM [inhibitor, partial curve, poor fit]"}
{"smiles": "CN(CC(=O)NC1(C)CCS(=O)(=O)C1)Cc1ccc(Cl)cc1", "note": "(configuration not stated)", "Potency": "inactive"}
{"smiles": "O=C(NCCc1ccccc1)Nc1cccc(-c2ccc(N3CCCCC3)nn2)c1", "Potency": "inactive"}
{"smiles": "c1ccc2c(-c3csc(NC4CCCC4)n3)c[nH]c2c1", "Potency": "inconclusive: 22.4 µM [inhibitor, full curve, poor fit]"}
{"smiles": "O=C1NC(=O)N(Cc2ccccc2F)C1=O", "Potency": "inconclusive: 2.24 µM [inhibitor, full curve]"}
{"smiles": "CCOC(=O)c1cnc2ccc(C)cc2c1NCCc1ccc(OC)c(OC)c1", "Potency": "inconclusive: 126 µM [inhibitor, partial curve, poor fit]"}
{"smiles": "CC(=O)c1cn(-c2ccc([N+](=O)[O-])cc2)c(=O)n(C)c1=O", "Potency": "inactive"}
{"smiles": "N#Cc1c(Cl)nc2c(c1C#N)CCC/C2=C\\c1ccco1", "Potency": "inconclusive: 1.41 µM [inhibitor, partial curve, poor fit]"}
{"smiles": "COc1cc(C(=O)Nc2cccc(Cl)c2N2CCCC2)cc(OC)c1OC", "Potency": "inconclusive: 35.5 µM [inhibitor, partial curve, poor fit]"}
{"smiles": "COc1ccc(C2Nc3ccccc3C(=O)N2NS(=O)(=O)c2ccccc2)cc1", "note": "(configuration not stated)", "Potency": "inconclusive: 39.8 µM [inhibitor, partial curve, poor fit]"}
{"smiles": "CCCCCOC(=O)Nc1ccc(S(=O)(=O)Nc2cccc([N+](=O)[O-])c2)cc1", "Potency": "inconclusive: 44.7 µM [inhibitor, partial curve, poor fit]"}
{"smiles": "O=c1[nH]sc2ccccc12", "Potency": "inconclusive: 35.5 µM [inhibitor, partial curve]"}
{"smiles": "O=C1Nc2ccc(Cl)cc2C12Nc1ccccc1-c1nnc(SCc3ccccc3F)nc1O2", "note": "(configuration not stated)", "Potency": "inconclusive: 44.7 µM [inhibitor, partial curve, poor fit]"}
{"smiles": "Cn1c(Oc2ccc(Cl)c(Cl)c2)c(C#N)c(=O)n(C)c1=O", "Potency": "inconclusive: 28.2 µM [inhibitor, partial curve, poor fit]"}
{"smiles": "Cc1ccc([N+](=O)[O-])c(C(=O)N/N=C/c2cccs2)c1", "Potency": "inactive"}
{"smiles": "O=C(c1nn(Cc2ccccc2)c(=O)c2ccccc12)N1CCN(c2ccc(O)cc2)CC1", "Potency": "inconclusive: 44.7 µM [inhibitor, partial curve, poor fit]"}
{"smiles": "O=C(O)CCC(=O)Nc1ccccc1C(=O)Nc1ccccc1", "Potency": "inactive"}
